From paper PMC6250738 come the findings set out here.

Sequences of proteins named here, by UniProt entry; tags and fusion partners are left off.
UniProt P17931: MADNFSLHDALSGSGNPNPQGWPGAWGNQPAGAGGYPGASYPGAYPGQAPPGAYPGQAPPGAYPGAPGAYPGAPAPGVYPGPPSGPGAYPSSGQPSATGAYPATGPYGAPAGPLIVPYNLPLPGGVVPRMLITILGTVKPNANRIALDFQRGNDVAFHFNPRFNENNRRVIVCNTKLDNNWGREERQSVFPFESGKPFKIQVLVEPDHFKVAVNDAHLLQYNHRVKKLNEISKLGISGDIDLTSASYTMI

The assay deals with T1, asialofetuin (UniProt P12763).
T1 sequence (chain, glycoprotein decorated with β-galactosides (asialo form)): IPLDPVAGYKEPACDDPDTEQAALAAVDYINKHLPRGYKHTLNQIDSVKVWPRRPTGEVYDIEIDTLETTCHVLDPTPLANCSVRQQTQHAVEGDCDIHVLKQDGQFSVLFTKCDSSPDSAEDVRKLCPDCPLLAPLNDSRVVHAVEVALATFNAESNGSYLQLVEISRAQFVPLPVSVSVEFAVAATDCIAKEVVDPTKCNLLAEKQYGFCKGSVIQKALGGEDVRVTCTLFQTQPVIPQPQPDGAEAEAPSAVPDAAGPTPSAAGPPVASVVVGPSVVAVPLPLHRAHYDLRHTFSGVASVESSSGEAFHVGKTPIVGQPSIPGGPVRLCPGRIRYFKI
The experiment in a line: quantitative precipitation (light scattering, absorbance at 420 nm; DLS); G3 protein ([G3] = 0-10 µM) mixed 1:1 by volume with ASF (7 µM) in PBS; both purified.

Results are given in words; binding and its absence hold for the method and conditions named. Some results given as binding are weak or reduced against the parent protein; the word gives no strength.

As to “wild-type galectin-3 (from UniProt P17931 1-250)”, the binding entry is on record as “binds”.
